# Data from publication PMC5218534, “Structural and biochemical analyses of the DEAD-box ATPase Sub2 in association with THO or Yra1” (eLife, 2017).
# Results are given in words; binding and its absence hold for the method and conditions named. Some results given as binding are weak or reduced against the parent protein; the word gives no strength.
# T1: Tho2 (residues 1-1207), subunit of THO* (S. cerevisiae) (UniProt P53552)
# T1 sequence: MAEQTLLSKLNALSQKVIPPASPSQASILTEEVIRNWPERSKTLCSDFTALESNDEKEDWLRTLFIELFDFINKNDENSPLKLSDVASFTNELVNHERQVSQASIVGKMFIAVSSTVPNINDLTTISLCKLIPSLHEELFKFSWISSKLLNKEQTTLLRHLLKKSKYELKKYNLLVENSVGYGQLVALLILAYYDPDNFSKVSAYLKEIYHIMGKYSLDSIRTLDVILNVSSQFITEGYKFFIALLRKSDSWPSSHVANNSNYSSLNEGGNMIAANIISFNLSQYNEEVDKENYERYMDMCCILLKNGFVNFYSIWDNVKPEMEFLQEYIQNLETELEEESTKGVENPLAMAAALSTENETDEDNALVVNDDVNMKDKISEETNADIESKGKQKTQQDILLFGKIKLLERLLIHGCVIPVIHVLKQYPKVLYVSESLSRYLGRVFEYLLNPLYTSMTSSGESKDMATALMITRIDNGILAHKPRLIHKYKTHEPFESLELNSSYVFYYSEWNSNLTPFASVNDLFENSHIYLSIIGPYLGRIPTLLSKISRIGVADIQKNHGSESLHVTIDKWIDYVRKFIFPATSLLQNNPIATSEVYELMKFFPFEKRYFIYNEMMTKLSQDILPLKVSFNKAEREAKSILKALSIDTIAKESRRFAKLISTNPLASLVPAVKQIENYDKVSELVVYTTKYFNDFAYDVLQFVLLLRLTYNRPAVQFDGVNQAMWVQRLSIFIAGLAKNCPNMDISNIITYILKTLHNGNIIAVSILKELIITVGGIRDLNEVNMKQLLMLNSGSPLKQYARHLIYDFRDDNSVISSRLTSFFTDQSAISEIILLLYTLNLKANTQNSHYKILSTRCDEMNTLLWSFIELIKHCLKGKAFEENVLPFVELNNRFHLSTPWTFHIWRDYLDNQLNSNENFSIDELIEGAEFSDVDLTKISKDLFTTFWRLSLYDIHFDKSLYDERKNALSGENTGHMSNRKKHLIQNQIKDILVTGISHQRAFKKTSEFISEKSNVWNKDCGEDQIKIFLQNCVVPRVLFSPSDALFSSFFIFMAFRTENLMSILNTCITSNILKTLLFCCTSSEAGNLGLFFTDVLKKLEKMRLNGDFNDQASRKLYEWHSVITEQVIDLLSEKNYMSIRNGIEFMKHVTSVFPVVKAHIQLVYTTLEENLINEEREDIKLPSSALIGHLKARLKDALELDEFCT
# Target: T1, Tho2 (residues 1-1207), subunit of THO* (S. cerevisiae)
# Assay: co-purification of co-expressed subunits (Ni2+-affinity, mono Q, Superose 6 size exclusion); THO* subunits co-expressed in High-Five cells; Tho2 and Tex1 with N-terminal His tags, Hpr1, Mft1 and Thp2 untagged; 4 °C; SDS-PAGE with Coomassie stain of the purified complex
row,binding,Binder
1,binds,"Thp2 (residues 1-261), subunit of THO* (protein, UniProt O13539 1-261) MTKEEGRTYFESLCEEEQSLQESQTHLLNILDILSVLADPRSSDDLLTESLKKLPDLHRELINSSIRLRYDKYQTREAQLLEDTKTGRDVAAGVQNPKSISEYYSTFEHLNRDTLRYINLLKRLSVDLAKQVEVSDPSVTVYEMDKWVPSEKLQGILEQYCAPDTDIRGVDAQIKNYLDQIKMARAKFGLENKYSLKERLSTLTKELNHWRKEWDDIEMLMFGDDAHSMKKMIQKIDSLKSEINAPSESYPVDKEGDIVLE"
2,binds,"Mft1 (residues 1-256), subunit of THO* (domain or fragment, UniProt P33441 1-256) MPLSQKQIDQVRTKVHYSEVDTPFNKYLDILGKVTKLTGSIINGTLSNDDSKIEKLTEQNISQLKESAHLRFLDLQSSIDTKKVADENWETCQQETLAKLENLKDKLPDIKSIHSKLLLRIGKLQGLYDSVQVINREVEGLSEGRTSLVVTRAEWEKELGTDLVKFLIEKNYLKLVDPGLKKDSSEERYRIYDDFSKGPKELESINASMKSDIENVRQEVSSYKEKWLRDAEIFGKITSIFKEELLKRDGLLNEAE"
3,binds,"Hpr1 (residues 1-603), subunit of THO* (domain or fragment, UniProt P17629 1-603) MSNTEELIQNSIGFLQKTFKALPVSFDSIRHEPLPSSMLHASVLNFEWEPLEKNISAIHDRDSLIDIILKRFIIDSMTNAIEDEEENNLEKGLLNSCIGLDFVYNSRFNRSNPASWGNTFFELFSTIIDLLNSPSTFLKFWPYAESRIEWFKMNTSVEPVSLGESNLISYKQPLYEKLRHWNDILAKLENNDILNTVKHYNMKYKLENFLSELLPINEESNFNRSASISALQESDNEWNRSARERESNRSSDVIFAADYNFVFYHLIICPIEFAFSDLEYKNDVDRSLSPLLDAILEIEENFYSKIKMNNRTRYSLEEALNTEYYANYDVMTPKLPVYMKHSNAMKMDRNEFWANLQNIKESDDYTLRPTIMDISLSNTTCLYKQLTQEDDDYYRKQFILQLCFTTNLIRNLISSDETRNFYKSCYLRENPLSDIDFENLDEVNKKRGLNLCSYICDNRVLKFYKIKDPDFYRVIRKLMSSDEKFTTAKIDGFKEFQNFRISKEKIPPPAFDETFKKFTFIKMGNKLINNVWKIPTGLDKIEQEVKKPEGVYEAAQAKWESKISSETSGGEAKDEIIRQWQTLRFLRSRYLFDFDKVNEKTGV"
